Values quoted from earlier work as cited in patent US20090036514A1, “Therapeutic effects of Bryostatins, Bryologs, and other related substances on Ischemia/stroke-induced memory impairment and brain injury” (priority 2007, published 2009).
At least one compound was matched to its structure with a doubt left.

Molecular target: PKC
Settings: read-out: Kd of PKC activation; cited from earlier work

For CC(C)=CCC/C(C)=C/CC/C(C)=C/CSc1nc[nH]n1 [Farnesyl thiotriazole], the Kd is given as 2500 nM.
